Measured values reported in paper PMC10341550, “Beta-Secretase 1 Recruits Amyloid-Beta Precursor Protein to ROCK2 Kinase, Resulting in Erroneous Phosphorylation and Beta-Amyloid Plaque Formation” (International Journal of Molecular Sciences, 2023).
Results are given in words; binding and its absence hold for the method and conditions named.

Chains of the proteins cited; added tags and fusions are not shown. Residues count along the entry.
UniProt O75116: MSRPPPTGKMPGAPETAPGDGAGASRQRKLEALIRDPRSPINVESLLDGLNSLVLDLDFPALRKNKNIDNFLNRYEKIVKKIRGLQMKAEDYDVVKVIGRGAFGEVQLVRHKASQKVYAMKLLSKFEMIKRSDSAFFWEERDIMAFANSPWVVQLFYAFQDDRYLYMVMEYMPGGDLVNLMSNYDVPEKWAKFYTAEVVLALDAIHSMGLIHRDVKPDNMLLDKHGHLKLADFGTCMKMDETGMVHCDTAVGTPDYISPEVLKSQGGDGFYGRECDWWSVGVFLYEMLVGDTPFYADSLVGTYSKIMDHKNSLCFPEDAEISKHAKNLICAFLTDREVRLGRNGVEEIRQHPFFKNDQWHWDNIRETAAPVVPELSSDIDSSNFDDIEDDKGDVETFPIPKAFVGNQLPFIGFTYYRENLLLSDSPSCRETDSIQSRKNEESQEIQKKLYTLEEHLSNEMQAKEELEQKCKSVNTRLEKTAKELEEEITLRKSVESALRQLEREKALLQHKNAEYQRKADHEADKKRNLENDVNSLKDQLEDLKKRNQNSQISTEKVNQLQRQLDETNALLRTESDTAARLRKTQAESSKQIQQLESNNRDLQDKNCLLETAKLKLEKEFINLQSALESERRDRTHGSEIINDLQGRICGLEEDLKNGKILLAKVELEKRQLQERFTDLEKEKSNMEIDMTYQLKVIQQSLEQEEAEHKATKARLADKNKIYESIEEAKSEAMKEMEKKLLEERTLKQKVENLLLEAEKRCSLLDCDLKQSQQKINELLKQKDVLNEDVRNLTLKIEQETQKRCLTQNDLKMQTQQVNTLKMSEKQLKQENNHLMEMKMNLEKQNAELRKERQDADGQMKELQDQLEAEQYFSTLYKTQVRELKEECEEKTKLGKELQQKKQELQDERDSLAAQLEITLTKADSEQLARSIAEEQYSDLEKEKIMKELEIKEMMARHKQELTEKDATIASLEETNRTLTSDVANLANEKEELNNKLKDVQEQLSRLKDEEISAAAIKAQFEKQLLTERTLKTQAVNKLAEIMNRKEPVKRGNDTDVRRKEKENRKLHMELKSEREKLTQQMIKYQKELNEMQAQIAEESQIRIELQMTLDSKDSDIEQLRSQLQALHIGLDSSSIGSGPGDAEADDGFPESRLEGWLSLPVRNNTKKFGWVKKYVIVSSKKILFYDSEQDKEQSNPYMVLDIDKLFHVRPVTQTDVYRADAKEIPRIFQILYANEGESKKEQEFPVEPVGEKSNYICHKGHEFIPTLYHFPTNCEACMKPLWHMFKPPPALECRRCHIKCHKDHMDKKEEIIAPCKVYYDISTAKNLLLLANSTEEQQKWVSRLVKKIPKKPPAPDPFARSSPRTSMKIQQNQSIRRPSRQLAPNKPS
UniProt P05067, residues 740-770: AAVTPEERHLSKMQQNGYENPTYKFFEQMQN

Target: Full-length ROCK2 protein (human ROCK2 1–1388) (human) (UniProt O75116)
Assay: fluorescence polarisation; steady-state competition: 50 nM labelled BACE1 mixed with ROCK2 to 25–50% complex, increasing unlabelled APP construct; fit to the competition-binding Morrison equation; both purified

APP_(646–664) fragment (from UniProt P05067-4 646-664) (domain or fragment)
binding: no binding

APP_(665–695) fragment (from UniProt P05067-4 665-695) (domain or fragment)
binding: no binding
